Measurements as given in patent publication US20110008356A1.
These are yes or no findings as the source states them, for the method shown. Some results given as binding are weak or reduced against the parent protein; the word gives no strength.

Target: Human IL-17RA:Fc (human), Q96F46
Assay: SPR (BIAcore)
Conditions: remark: other sources report otherwise

binding: binds
B1: Human IL-17F, Q96PD4 31-163 (ligand, UniProt Q96PD4 31-163, looked up)
chain: RKIPKVGHTFFQKPESCPPVPGGSMKLDIGIINENQRVSMSRNIESRSTSPWNYTVTWDPNRYPSEVVQAQCRNLGCINAQGKEDISMNSVPIQQETLVVRRKHQGCSVSFQLEKVLVTVGCTCVTPVIHHVQ
